The list does not hold the whole screen: it is rich in T/C values a quarter to a half above the control, in often repeated tests (any T/C) and in doses without a T/C. Other doses and runs of a compound stand elsewhere. T/C: endpoint of the treated group in % of that of the vehicle group. Schedule codes are those of the source, read here as Q, the interval in days (D) or hours (H), X, the number of doses. Some T/C values carry the count of animals alive at the toxicity check (mostly the fifth day); without a count, all were alive then. Some entries hold several experiments; their values stand side by side, smallest first. Some entries give survivors of the animals treated and no T/C: the source holds a T/C of zero for them, seemingly a mark for toxic or unscored doses. Counts of survivors are from the toxicity check (mostly the fifth day) where no day follows; animals may have died later.
System: nude mice, LX-1 lung xenograft intrarenal, tumor weight T/C
Experiment: NCI In Vivo Anticancer Drug Screen. Data for tumor model Human Lung LX-1 Xenograft (intrarenal inoculation) in NU/NU Swiss (nude) mice
Conditions: T/C endpoint: mean tumor weight change, higher T/C = larger tumour; for T/C: evaluated on day 11
In short: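 Antitumor effect is expressed as a ratio: the mean tumor measurement of the drug-treated group relative to that of the vehicle-dosed control group.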

[1] = dose: 50.0 mg/kg/injection, schedule: Q01DX010 (sc), vehicle: saline with Tween-80
[2] = dose: 100.0 mg/kg/injection, schedule: Q01DX010 (sc), vehicle: saline with Tween-80
[3] = dose: 200.0 mg/kg/injection, schedule: Q01DX010 (sc), vehicle: saline with Tween-80
[4] = dose: 50.0 mg/kg/injection, schedule: Q01DX010 (sc), vehicle: saline
[5] = dose: 25.0 mg/kg/injection, schedule: Q01DX010 (sc), vehicle: saline

CC1=C[S+](c2ccccc2)c2cccc3cc4ccccc4c1c23 (centres undefined)
T/C (dose: 4.0 mg/kg/injection, schedule: Q04DX003 (sc), vehicle: saline with Tween-80): 127 % of control
T/C (dose: 8.0 mg/kg/injection, schedule: Q04DX003 (sc), vehicle: saline with Tween-80): 126 % of control
T/C (dose: 16.0 mg/kg/injection, schedule: Q04DX003 (sc), vehicle: saline with Tween-80): 142 % of control

CCN(CC)CCCC(C)Nc1c2ccc(Cl)cc2nc2ccc(OC)cc12 (centres undefined)
T/C [1]: 37, 56, 71 [2 of 2 alive on day 11], 84, 94 % of control
T/C [2]: 49, 50 [5 of 6 alive on day 11], 55, 76, 85 % of control
T/C (dose: 150.0 mg/kg/injection, schedule: Q04DX003 (sc), vehicle: saline with Tween-80): 125 % of control
T/C [3]: 6 [2 of 3 alive on day 11], 8, 39 % of control [5 of 6 alive on day 11]
survivor count [3]: 1 of 6 on day 11
survivor count (dose: 300.0 mg/kg/injection, schedule: Q04DX003 (sc), vehicle: saline with Tween-80): 1 of 6 on day 11
survivor count (dose: 400.0 mg/kg/injection, schedule: Q01DX010 (sc), vehicle: saline with Tween-80): 0 of 3 on day 11, 0 of 6 on day 11, 1 of 6 on day 11
survivor count (dose: 600.0 mg/kg/injection, schedule: Q04DX003 (sc), vehicle: saline with Tween-80): 0 of 6 on day 11 and 1 of 6 on day 11
survivor count (dose: 1200.0 mg/kg/injection, schedule: Q04DX003 (sc), vehicle: saline with Tween-80): 0 of 6 on day 11

CN(C)[C@@H]1C(=O)C(C(N)=O)=C(O)[C@@]2(O)C(=O)C3=C(O)c4c(O)ccc(Cl)c4[C@@](C)(O)[C@H]3C[C@@H]12
T/C (dose: 2400.0 mg/kg/injection, schedule: Q04DX003 (sc), vehicle: saline): 135 % of control

CCN(CC)c1ccc2cc(-c3nc4ccccc4n3C)c(=O)oc2c1
T/C (dose: 300.0 mg/kg/injection, schedule: Q04DX003 (sc), vehicle: Klucel (hydroxypropylcellulose) (HPC)): 144 % of control [4 of 6 alive on day 11]
survivor count (dose: 600.0 mg/kg/injection, schedule: Q04DX003 (sc), vehicle: Klucel (hydroxypropylcellulose) (HPC)): 1 of 6 on day 11

Nc1nc(N)c2c(Cl)c(CNc3ccc(Cl)c(Cl)c3)ccc2n1
survivor count [1]: 0 of 6 on day 11
survivor count [2]: 0 of 6 on day 11
survivor count [3]: 0 of 6 on day 11

CC(=O)C1(O)Cc2c(O)c3c(c(O)c2C(OC2CC(N)C(O)C(C)O2)C1)C(=O)c1ccccc1C3=O (centres undefined)
T/C (dose: 1.0 mg/kg/injection, schedule: Q04DX003 (sc), vehicle: water): 140 % of control
T/C (dose: 2.0 mg/kg/injection, schedule: Q04DX003 (sc), vehicle: water): 144 % of control [4 of 6 alive on day 11]
survivor count (dose: 4.0 mg/kg/injection, schedule: Q04DX003 (sc), vehicle: water): 0 of 6 on day 11

CC[C@@]1(O)C[C@H](OC2CC(N(C)C)C(OC3CC(O)C(OC4CCC(=O)C(C)O4)C(C)O3)C(C)O2)c2c(cc3c(c2O)C(=O)c2c(O)ccc(O)c2C3=O)[C@H]1C(=O)OC (some centres undefined)
survivor count (dose: 12.0 mg/kg/injection, schedule: Q04DX003 (sc), vehicle: water): 1 of 6 on day 11
survivor count (dose: 24.0 mg/kg/injection, schedule: Q04DX003 (sc), vehicle: water): 0 of 6 on day 11

C=CC(=O)NCNC(=O)C=C
survivor count [4]: 1 of 3 on day 11
survivor count (dose: 200.0 mg/kg/injection, schedule: Q01DX010 (sc), vehicle: saline): 1 of 3 on day 11

CC1(C)N=C(N)N=C(N)N1c1ccc(CCCCc2ccc(S(=O)(=O)F)cc2Cl)c(Cl)c1
survivor count (dose: 12.5 mg/kg/injection, schedule: Q01DX010 (sc), vehicle: saline): 1 of 3 on day 11
T/C [5]: 142 % of control
survivor count [5]: 1 of 3 on day 11
survivor count [4]: 0 of 3 on day 11 and 1 of 3 on day 11
survivor count (dose: 100.0 mg/kg/injection, schedule: Q01DX010 (sc), vehicle: saline): 0 of 3 on day 11

COc1ccc(C[C@H](N)C(=O)NC2C(CO)OC(n3cnc4c(N(C)C)ncnc43)C2O)cc1 (some centres undefined)
T/C (dose: 400.0 mg/kg/injection, schedule: Q04DX003 (sc), vehicle: saline): 128 % of control
survivor count (dose: 800.0 mg/kg/injection, schedule: Q04DX003 (sc), vehicle: saline): 0 of 6 on day 11

COc1cccc2c1C(=O)c1c(O)c3c(c(O)c1C2=O)C[C@@](O)(/C(CO)=N/NC(=O)c1ccc(Cl)c(Cl)c1)C[C@@H]3OC1CC(N)C(O)C(C)O1 (some centres undefined)
survivor count (dose: 32.0 mg/kg/injection, schedule: Q01DX010 (sc), vehicle: water): 0 of 3 on day 11
survivor count (dose: 64.0 mg/kg/injection, schedule: Q01DX010 (sc), vehicle: water): 0 of 3 on day 11

Cc1cc(NCCCCCCCCNc2cc(C)nc3cc(N(C)C)ccc23)c2ccc(N(C)C)cc2n1
survivor count (dose: 150.0 mg/kg/injection, schedule: Q01DX010 (sc), vehicle: saline with Tween-80): 0 of 6 on day 11 and 2 of 6 on day 11
survivor count (dose: 300.0 mg/kg/injection, schedule: Q01DX010 (sc), vehicle: saline with Tween-80): 0 of 6 on day 11
survivor count (dose: 600.0 mg/kg/injection, schedule: Q04DX003 (sc), vehicle: distilled water + Tween-80 + alcohol): 3 of 6 on day 11

COc1cccc2c1C(=O)c1c(O)c3c(c(O)c1C2=O)C[C@@](O)(C(=O)COC(=O)c1cccnc1)C[C@@H]3OC1CC(N)C(O)C(C)O1 (some centres undefined)
T/C (dose: 6.0 mg/kg/injection, schedule: Q04DX003 (sc), vehicle: saline): 126 % of control

O=C1N(Cl)C(=O)C(c2ccc(Cl)cc2)(c2ccc(Cl)cc2)N1Cl
T/C [2]: 131 % of control
